## Percent effect of library compounds

Each number is a percent effect as filed.
The record does not define 0% and 100%; most values in the screen are far below 50% and negative numbers occur (in some assays of this library far below -100).
The compounds are a random part of those screened.
Two or more numbers in one place are separate tests of the same structure; such repeats can differ widely.

T. brucei: 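Whole-parasite assay of Trypanosoma brucei over 72 hours; the read-out is not stated. Tested at 30 µM. Higher reads as stronger inhibition (inferred: compounds with an IC50 in retests scored well above the rest). Values scatter widely below zero; nearly all retest evidence comes from the higher of the two concentrations used. Of about 64,000 compounds tested this way, about 940 (1.5%) reached 50% or more in at least one test.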
Leishmania in macrophages: 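Cell assay of Leishmania donovani living inside macrophages; the read-out is not stated. Concentration: 30 µM. Direction is inferred from retests: higher values go with stronger inhibition. Size under these conditions: about 69,000 compounds, about 1,000 of them at 50% or above in at least one test.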

With C=C(C)COCCNC(=O)C1CCCN1C(C)=O (centres undefined) the screen gave T. brucei: 28.86%; Leishmania in macrophages: 26.61%. Result for COc1ccc(C(=O)O)c(OCC(=O)NC(C)c2ccc(F)cc2)c1 (centres undefined) was T. brucei: -28.18%; Leishmania in macrophages: 12.01%. Cc1ncc(CNC(=O)Cc2ccsc2)c(C2CCCN2C)n1 (centres undefined) read T. brucei: -3.602%; Leishmania in macrophages: 14.43% and 14.58%. O=C(NCCCn1nc2ccccn2c1=O)NCCC1CCC1 read T. brucei: -19.45%; Leishmania in macrophages: 27.05%. O=C(NCCCN1CCc2ccccc2C1)c1ccccc1Cl gave T. brucei: -2.573%; Leishmania in macrophages: 53%. Result for CN(CCc1ccncc1)c1cnn(C)c(=O)c1Br was T. brucei: -45.3%; Leishmania in macrophages: -51.56%. CN1CCC(CCc2ccnc(Nc3cnccn3)c2)CC1 read T. brucei: 18.66%; Leishmania in macrophages: 21.68%.

Result for COc1ccc(CN(C)[C@@H]2COC[C@H]2c2ccc(F)cc2)c(OC)c1.O=C(O)CC(O)(CC(=O)O)C(=O)O was T. brucei: 4.622%; Leishmania in macrophages: 13.55%. With CN1CCCN(S(=O)(=O)c2cn(C)cn2)c2cc(F)ccc21 the screen gave T. brucei: -43.32%; Leishmania in macrophages: -23.6%. [H][C@@]12CN(S(=O)(=O)c3ccccc3)C[C@]1([H])OCC(=O)N2c1ccccc1 read T. brucei: -13.06%; Leishmania in macrophages: 15.13%. With CCOc1cncc(N2CCCC2c2nnc3n2CCCCC3)n1 (centres undefined) the screen gave T. brucei: -32.7%; Leishmania in macrophages: 11.89%. Result for CC[C@H](C)[C@H](N)C(=O)Nc1nc(-c2cnc(N(C)CCO)nc2)cs1 was T. brucei: -2.058%; Leishmania in macrophages: 6.163% and 4.861%. O=C1CCC2(CCCN(C(=O)c3cccs3)C2)N1 (centres undefined) read T. brucei: -10.65%; Leishmania in macrophages: 4.112%. Cc1cnn(CC2CCCN2CCCS(C)(=O)=O)c1 (centres undefined) read T. brucei: 7.275%; Leishmania in macrophages: 30.68%.

With CN(C)CCOCc1cncc2c1CCN(Cc1ccccn1)C2.O=C(O)C(F)(F)F.O=C(O)C(F)(F)F.O=C(O)C(F)(F)F the screen gave T. brucei: -28.23%; Leishmania in macrophages: 18.38%. With Cc1nc(NS(=O)(=O)c2ccc(F)c(Br)c2)no1 the screen gave T. brucei: -26.28%; Leishmania in macrophages: 13.27%. With Cc1ccc(-c2nc(CC(=O)NCC3CCOC3)cs2)o1 (centres undefined) the screen gave T. brucei: 8.103%; Leishmania in macrophages: 20%. With CN(CC(=O)N1CCN(c2ccccc2F)CC1)c1cnccn1 the screen gave T. brucei: 21.88%; Leishmania in macrophages: 19.42%. CCS(=O)(=O)N1CCCC2(COCCN(c3cnccn3)C2)C1.O=C(O)C(F)(F)F (centres undefined) gave T. brucei: -2.208%; Leishmania in macrophages: 21.06%. Result for COCCN(Cc1cccnc1)S(=O)(=O)c1cccc(F)c1F was T. brucei: 10.6%; Leishmania in macrophages: 21.2%. Result for c1ccc(-c2nnc(CNCCn3cccn3)o2)cc1 was T. brucei: -19.79%; Leishmania in macrophages: 32.38%.

Cc1cc2cccc(C(=O)N3CCOC4(CNCCOC4)C3)c2o1 (centres undefined) gave T. brucei: -28.63%; Leishmania in macrophages: -32.86%. Result for CSCC(C)(O)CNS(=O)(=O)Cc1ccc(F)cc1 (centres undefined) was T. brucei: -33.18%; Leishmania in macrophages: -2.443%. Result for CC(C#N)CN(C)C(=O)c1cn(-c2ccc(Br)cc2)cn1 (centres undefined) was T. brucei: 7.355%; Leishmania in macrophages: -30.91%. Cn1cccc1C(=O)NCc1cn2c(n1)CN(C(=O)c1ccsc1)CC2 read T. brucei: -18.94%; Leishmania in macrophages: 27.2%. Cc1cc(C)nc(N2CCN(C(=O)c3cc(Cl)c[nH]3)CC2)n1 read T. brucei: -16.5%; Leishmania in macrophages: 1.208%. For CCOc1ccc(OCC(O)CN2CCN(S(C)(=O)=O)CC2)cc1 (centres undefined) the result was Leishmania in macrophages: 3.697%. For CC(c1ccon1)N(C)C(=O)C1CCN(C(=O)C2CCC2)CC1 (centres undefined) the result was T. brucei: -18.94%; Leishmania in macrophages: -9.301%.

For CNC(=O)c1cc(-n2ccnc2-c2cnc(N(C)C)nc2)ccc1OC the result was T. brucei: -46.34%; Leishmania in macrophages: 15.3%.

3 of the entries, repeated:

| compound | T. brucei | Leishmania in macrophages |
|---|---|---|
| `CCOc1cncc(N2CCCC2c2nnc3n2CCCCC3)n1` (centres undefined) | -32.7 | 11.89 |
| `COc1ccc(C(=O)O)c(OCC(=O)NC(C)c2ccc(F)cc2)c1` (centres undefined) | -28.18 | 12.01 |
| `Cc1cnn(CC2CCCN2CCCS(C)(=O)=O)c1` (centres undefined) | 7.275 | 30.68 |

Source: ChEMBL document CHEMBL3988442, “University of Dundee, Small-Polar-MMV Screening Library” (2021).